Paper doi:10.1101/2024.04.06.588283
Results are given in words; binding and its absence hold for the method and conditions named. Some results given as binding are weak or reduced against the parent protein; the word gives no strength. Where a sequence is shown, tags or fusion partners need not be part of it.

Molecular target: FCA-eGFP (Arabidopsis) (UniProt O04425)
Test: single particle tracking with stepwise photobleaching

- binding: binds
B1: FCA-eGFP (protein, UniProt O04425 1-747)
chain: MNGPPDRVDFKPMGPHHGGSFRPMGFAYDDGFRPMGPNGGVGGEGTRSIVGARYNYPAKYPPSESPDRRRFIGKAMESDYSVRPTTPPVQQPLSGQKRGYPISDHGSFTGTDVSDRSSTVKLFVGSVPRTATEEEIRPYFEQHGNVLEVALIKDKRTGQQQGCCFVKYATSKDADRAIRALHNQITLPGGTGPVQVRYADGERERIGTLEFKLFVGSLNKQATEKEVEEIFLQFGHVEDVYLMRDEYRQSRGCGFVKYSSKETAMAAIDGLNGTYTMRGCNQPLIVRFAEPKRPKPGESREMAPPVGLGSGPRFQASGPRPTSNFGDSSGDVSHTNPWRPATSRNVGPPSNTGIRGAGSDFSPKPGQATLPSNQGGPLGGYGVPPLNPLPVPGVSSSATLQQQNRAAGQHITPLKKPLHSPQGLPLPLRPQTNFPGAQAPLQNPYAYSSQLPTSQLPPQQNISRATAPQTPLNINLRPTTVSSATVQFPPRSQQQPLQKMQHPPSELAQLLSQQTQSLQATFQSSQQAISQLQQQVQSMQQPNQNLPLSQNGRAGKQQWAGSAIPRVASTTGSTPVSYVQTAAPAVSQSVGSVKCTWTEHTSPDGFKYYYNGLTGESKWEKPEEMIVFEREQQKQQQHQEKPTIQQSQTQLQPLQQQPQQVQQQYQGQQLQQPFYSSLYPTPGASHNTQYPSLPVGQNSQFPMSGIGQNAQDYARTHIPVGAASMNDISRTQQSRQSPQELMWKNKA
